Measurements taken from publication PMC4735655.

Amino acid sequences for entries named in this document (tags omitted).
UniProt O14965: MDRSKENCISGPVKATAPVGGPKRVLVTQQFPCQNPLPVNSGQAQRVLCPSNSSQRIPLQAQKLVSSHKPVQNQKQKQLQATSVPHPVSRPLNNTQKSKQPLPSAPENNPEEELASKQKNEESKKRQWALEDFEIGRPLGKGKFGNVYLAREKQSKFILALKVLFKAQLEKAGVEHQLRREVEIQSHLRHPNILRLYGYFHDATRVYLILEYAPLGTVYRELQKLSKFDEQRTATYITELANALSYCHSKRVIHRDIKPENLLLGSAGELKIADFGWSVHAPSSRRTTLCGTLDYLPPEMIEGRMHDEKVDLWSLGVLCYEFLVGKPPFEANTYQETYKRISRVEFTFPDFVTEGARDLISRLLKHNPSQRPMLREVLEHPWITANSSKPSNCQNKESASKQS

Target: AURKA-Flag (human) (UniProt O14965)
Assay: affinity purification with mass spectrometry; SILAC: cells stably expressing AURKA-Flag (heavy D3-leucine) against Flag control cells (light), RIPA lysates mixed 1:1, anti-Flag M2 agarose, Flag peptide elution, LC-MS/MS

binding: binds
Substance: heterogeneous nuclear ribonucleoprotein K (hnRNP K), endogenous (from UniProt P61978 1-463)

No constants are given. Whether binding was seen depends on the method and setting. Binding seen in cells or lysates may run through a third protein. Here binding means that the protein was enriched with, or labelled near, the bait; the list need not be complete.
